According to the supplement of paper PMC12067093, “Discovery and optimisation of a covalent ligand for TRIM25 and its application to targeted protein ubiquitination” (Chemical Science, 2025):
Some of the results follow.

By UniProt entry, the sequences of proteins in these tests, tags left out. Where a name states a change or a piece, a line headed by the entry shows the natural chain unless it says otherwise.
UniProt Q99798: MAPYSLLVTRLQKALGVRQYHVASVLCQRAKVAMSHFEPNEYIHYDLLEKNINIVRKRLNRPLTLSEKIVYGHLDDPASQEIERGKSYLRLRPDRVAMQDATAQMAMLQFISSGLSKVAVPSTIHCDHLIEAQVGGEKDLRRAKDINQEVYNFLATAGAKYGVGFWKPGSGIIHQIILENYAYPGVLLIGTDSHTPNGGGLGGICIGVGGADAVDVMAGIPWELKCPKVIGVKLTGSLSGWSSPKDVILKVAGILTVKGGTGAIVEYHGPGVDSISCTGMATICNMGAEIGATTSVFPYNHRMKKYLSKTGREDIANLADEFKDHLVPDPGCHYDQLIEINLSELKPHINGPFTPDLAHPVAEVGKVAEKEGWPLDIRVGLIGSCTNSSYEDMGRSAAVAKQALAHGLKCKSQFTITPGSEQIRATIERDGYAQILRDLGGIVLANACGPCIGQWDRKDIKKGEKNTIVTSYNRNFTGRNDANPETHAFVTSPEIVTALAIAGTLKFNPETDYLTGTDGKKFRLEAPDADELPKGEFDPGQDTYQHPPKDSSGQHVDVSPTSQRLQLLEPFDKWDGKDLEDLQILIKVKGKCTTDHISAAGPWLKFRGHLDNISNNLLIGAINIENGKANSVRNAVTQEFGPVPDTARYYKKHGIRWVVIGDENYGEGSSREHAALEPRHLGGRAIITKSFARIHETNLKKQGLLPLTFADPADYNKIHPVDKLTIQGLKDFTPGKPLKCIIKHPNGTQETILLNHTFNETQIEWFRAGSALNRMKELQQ
UniProt Q8WU67: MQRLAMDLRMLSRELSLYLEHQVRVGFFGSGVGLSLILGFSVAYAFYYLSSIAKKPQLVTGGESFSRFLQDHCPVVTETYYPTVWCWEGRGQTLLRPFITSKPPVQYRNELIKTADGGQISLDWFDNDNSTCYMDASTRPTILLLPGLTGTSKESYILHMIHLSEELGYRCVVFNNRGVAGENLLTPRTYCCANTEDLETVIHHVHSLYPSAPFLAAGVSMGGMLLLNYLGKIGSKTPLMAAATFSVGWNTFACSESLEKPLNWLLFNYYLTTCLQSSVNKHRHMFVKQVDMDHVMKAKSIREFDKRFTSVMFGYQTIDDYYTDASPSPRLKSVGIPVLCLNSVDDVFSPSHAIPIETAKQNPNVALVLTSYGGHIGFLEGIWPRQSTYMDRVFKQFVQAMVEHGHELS
UniProt P16219: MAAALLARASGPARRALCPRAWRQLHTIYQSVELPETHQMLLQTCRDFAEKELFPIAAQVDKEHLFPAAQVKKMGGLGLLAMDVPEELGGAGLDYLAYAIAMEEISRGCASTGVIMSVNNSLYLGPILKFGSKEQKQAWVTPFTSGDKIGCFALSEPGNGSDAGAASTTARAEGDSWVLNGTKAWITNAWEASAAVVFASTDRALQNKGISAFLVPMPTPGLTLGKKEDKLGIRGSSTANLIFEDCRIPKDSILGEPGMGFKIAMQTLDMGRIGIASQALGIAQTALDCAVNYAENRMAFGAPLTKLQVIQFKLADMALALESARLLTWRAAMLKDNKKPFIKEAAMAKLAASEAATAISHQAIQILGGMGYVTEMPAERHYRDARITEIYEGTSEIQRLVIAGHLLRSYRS
UniProt P49748: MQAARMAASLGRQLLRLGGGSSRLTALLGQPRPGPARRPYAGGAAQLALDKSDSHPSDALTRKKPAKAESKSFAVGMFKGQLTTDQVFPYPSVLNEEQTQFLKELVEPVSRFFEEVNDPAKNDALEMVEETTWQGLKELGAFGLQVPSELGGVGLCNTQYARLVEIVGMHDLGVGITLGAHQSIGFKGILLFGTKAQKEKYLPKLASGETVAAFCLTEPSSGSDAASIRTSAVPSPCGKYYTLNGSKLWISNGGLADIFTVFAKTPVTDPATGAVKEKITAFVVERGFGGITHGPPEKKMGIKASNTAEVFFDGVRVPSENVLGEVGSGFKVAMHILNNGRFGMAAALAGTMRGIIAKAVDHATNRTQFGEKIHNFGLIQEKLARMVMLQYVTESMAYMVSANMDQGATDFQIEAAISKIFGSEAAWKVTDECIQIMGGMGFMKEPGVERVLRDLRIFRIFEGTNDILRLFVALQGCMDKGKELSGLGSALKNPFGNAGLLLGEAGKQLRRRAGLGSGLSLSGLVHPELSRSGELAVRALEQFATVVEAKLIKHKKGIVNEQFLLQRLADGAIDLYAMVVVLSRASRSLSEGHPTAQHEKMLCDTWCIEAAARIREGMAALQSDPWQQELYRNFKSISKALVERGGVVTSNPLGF
UniProt Q2M2I8: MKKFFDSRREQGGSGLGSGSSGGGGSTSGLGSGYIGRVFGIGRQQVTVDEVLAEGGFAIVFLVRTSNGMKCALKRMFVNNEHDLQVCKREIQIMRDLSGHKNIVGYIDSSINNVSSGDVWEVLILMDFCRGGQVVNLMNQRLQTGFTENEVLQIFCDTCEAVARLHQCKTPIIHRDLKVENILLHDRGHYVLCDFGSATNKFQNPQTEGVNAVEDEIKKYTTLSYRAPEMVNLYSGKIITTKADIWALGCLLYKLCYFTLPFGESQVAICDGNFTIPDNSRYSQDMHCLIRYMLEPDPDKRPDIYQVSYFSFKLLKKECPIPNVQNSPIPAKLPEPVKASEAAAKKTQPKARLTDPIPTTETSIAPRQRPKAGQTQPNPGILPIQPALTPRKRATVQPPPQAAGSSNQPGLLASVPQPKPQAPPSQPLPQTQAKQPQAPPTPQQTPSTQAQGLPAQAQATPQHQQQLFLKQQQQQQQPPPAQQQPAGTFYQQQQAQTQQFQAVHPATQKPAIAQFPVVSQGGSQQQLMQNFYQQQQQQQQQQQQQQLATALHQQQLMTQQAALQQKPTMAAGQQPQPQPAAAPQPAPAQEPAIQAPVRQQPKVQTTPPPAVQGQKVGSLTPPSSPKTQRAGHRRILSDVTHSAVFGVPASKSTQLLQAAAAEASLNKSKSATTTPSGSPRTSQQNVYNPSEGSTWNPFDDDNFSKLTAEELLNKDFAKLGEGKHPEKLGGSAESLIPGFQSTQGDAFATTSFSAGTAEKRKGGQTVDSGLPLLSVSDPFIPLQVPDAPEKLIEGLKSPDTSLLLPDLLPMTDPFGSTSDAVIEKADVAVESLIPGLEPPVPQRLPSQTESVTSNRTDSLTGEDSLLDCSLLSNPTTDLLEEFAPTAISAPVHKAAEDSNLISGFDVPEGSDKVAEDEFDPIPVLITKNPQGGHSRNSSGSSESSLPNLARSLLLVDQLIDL
UniProt Q9H3P7: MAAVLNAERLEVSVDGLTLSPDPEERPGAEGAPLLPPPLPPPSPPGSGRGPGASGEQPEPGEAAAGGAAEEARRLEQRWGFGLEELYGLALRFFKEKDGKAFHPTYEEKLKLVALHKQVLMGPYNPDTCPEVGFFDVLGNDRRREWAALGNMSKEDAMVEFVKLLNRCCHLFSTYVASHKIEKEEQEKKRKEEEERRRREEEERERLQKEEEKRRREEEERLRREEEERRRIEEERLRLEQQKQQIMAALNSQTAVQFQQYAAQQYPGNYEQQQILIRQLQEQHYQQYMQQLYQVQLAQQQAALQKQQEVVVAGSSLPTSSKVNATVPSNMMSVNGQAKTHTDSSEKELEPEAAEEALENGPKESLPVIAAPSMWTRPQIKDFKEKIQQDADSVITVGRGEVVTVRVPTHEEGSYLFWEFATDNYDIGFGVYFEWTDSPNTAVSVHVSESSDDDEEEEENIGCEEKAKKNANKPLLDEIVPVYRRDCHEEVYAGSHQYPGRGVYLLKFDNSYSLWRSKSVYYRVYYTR
UniProt P53396: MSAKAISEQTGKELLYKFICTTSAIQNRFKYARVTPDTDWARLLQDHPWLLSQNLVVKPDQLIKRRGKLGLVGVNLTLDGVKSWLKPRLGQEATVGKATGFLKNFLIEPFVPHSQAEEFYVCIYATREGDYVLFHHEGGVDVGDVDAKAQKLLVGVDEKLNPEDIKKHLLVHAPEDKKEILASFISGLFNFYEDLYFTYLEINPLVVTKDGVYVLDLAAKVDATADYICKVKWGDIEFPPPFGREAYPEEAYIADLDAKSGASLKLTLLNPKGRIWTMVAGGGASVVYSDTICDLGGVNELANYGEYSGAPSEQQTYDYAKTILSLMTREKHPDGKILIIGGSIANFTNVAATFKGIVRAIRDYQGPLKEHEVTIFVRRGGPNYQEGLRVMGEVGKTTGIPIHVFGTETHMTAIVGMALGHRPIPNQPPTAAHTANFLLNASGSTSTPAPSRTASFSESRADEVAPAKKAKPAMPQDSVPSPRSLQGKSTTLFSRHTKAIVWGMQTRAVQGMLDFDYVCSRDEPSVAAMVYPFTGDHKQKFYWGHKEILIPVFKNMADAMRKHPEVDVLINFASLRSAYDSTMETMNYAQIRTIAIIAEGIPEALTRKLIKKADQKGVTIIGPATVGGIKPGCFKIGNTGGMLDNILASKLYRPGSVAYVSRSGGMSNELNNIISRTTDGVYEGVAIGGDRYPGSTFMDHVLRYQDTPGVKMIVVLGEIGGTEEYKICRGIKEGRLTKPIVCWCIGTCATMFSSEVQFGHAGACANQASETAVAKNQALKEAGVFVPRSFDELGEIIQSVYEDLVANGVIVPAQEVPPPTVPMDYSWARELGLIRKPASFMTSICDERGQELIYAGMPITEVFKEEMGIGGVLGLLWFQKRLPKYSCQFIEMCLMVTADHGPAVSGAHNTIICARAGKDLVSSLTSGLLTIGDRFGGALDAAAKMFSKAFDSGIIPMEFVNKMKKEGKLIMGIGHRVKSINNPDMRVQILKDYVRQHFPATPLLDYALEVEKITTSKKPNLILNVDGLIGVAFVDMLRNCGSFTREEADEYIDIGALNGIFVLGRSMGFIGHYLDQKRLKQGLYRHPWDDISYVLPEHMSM
UniProt Q8IZP0: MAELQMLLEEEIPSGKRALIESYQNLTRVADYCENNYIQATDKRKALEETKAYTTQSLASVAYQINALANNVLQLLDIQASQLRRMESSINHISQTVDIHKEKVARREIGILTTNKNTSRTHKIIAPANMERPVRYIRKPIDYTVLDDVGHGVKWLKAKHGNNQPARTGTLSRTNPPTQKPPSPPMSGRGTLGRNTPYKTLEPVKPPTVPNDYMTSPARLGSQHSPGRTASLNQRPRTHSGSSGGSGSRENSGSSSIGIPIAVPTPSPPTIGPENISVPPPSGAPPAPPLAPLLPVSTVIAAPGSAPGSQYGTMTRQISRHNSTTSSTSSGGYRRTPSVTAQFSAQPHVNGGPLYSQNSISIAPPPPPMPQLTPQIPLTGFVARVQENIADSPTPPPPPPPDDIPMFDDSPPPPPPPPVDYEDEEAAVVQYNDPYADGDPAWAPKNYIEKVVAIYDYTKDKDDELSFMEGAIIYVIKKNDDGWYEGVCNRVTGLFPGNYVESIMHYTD
UniProt P49588, whole entry, looked up: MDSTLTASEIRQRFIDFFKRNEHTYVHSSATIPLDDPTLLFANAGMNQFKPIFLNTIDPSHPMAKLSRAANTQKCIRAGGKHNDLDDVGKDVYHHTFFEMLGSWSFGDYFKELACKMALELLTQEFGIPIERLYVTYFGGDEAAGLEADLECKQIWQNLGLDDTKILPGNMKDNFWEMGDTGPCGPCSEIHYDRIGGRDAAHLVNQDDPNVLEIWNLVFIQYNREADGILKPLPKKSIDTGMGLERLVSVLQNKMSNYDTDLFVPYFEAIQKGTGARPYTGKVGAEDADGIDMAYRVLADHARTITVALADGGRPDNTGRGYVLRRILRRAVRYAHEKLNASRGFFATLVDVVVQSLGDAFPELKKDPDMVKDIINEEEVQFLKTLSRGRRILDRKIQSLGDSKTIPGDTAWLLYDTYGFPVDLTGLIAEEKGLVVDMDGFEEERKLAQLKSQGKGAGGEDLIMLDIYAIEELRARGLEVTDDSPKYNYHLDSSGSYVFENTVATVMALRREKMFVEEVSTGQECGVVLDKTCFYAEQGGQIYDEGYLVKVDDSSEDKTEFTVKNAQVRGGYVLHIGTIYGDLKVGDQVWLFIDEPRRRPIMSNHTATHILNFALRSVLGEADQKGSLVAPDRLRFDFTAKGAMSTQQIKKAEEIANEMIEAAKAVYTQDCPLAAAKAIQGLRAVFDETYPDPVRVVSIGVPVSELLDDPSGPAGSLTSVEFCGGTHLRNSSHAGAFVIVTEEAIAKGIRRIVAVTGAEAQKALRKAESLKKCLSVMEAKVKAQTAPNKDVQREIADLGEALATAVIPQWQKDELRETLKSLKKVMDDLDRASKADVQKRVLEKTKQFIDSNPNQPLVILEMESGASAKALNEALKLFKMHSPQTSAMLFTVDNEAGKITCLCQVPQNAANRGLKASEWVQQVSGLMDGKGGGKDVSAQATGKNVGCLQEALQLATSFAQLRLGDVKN

Compound: CC1Cc2ccccc2N1C(=O)C1CCCN(C1)C(=O)CCl (mixture of isomers) [TRIM25 ligand 11 (diastereomer mixture)]
Test: probe-labelled cysteine peptide fold change vs DMSO (competition) (log2 fold change); higher = less target engagement (more negative = stronger competition)
Settings: THP-1, incubation time: 4 h
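Also: competitive chemoproteomic profiling in live THP-1 cells with an iodoacetamide desthiobiotin (IA-DTB) probe, comparing probe-labelled peptide intensities in compound-treated cells against DMSO-treated controls.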

| Target | probe-labelled cysteine peptide fold change (10 µM) | probe-labelled cysteine peptide fold change (50 µM) |
| --- | --- | --- |
| ACO2_Q99798_332_DHLVPDPGCHYDQLIEINLSELK (UniProt Q99798) | 0.0742 | 0.101 |
| ACAT2_Q9BWD1_65_ATVAPEDVSEVIFGHVLAAGCGQNPVR (UniProt Q9BWD1) | -0.0178 | -0.0209 |
| ABL1_P00519_100_VLGYNHNGEWCEAQTK (UniProt P00519) | 0.0166 | 0.0865 |
| ACO1_P21399_50_NCDEFLVK (UniProt P21399) | -0.0915 | 0.0905 |
| ABHD3_Q8WU67_86_FLQDHCPVVTETYYPTVWCWEGR (UniProt Q8WU67) | -0.0185 | 0.0955 |
| ACADS_P16219_246_GSSTANLIFEDCR (UniProt P16219) | -0.0306 | -0.183 |
| ACADVL_P49748_156_ELGAFGLQVPSELGGVGLCNTQYAR (UniProt P49748) | 0.0464 | -0.0491 |
| ACAD9_Q9H845_613_AYICAHPLDR (UniProt Q9H845) | 0.0592 | -0.00872 |
| AAK1_Q2M2I8_319_KECPIPNVQNSPIPAK (UniProt Q2M2I8) | -0.0908 | -0.082 |
| ABCE1_P61221_231_FACAVVCIQK (UniProt P61221) | 0.109 | 0.163 |
| ACAT2_Q9BWD1_65_RATVAPEDVSEVIFGHVLAAGCGQNPVR (UniProt Q9BWD1) | 0.0249 | -0.000715 |
| ACBD3_Q9H3P7_169_CCHLFSTYVASHK (UniProt Q9H3P7) | 0.129 | 0.07 |
| A2ML1_A8K2U0_694_PVDCSHR (UniProt A8K2U0) | -0.182 | -0.00161 |
| A2M_P01023_299_FSGQLNSHGCFYQQVK (UniProt P01023) | 0.155 | 0.133 |
| ACLY_P53396_229_VDATADYICK (UniProt P53396) | 0.099 | 0.0927 |
| ACAT2_Q9BWD1_148+158_IGEMPLTDSILCDGLTDAFHNCHMGITAENVAK (UniProt Q9BWD1) | -0.0352 | -0.405 |
| ACADSB_P45954_261_ASSTCPLTFENVK (UniProt P45954) | -0.0344 | -0.093 |
| AARS2_Q5JTZ9_750_VVSVGVPVAHALDPASQAALQTSVELCCGTHLLR (UniProt Q5JTZ9) | 0.254 | 0.147 |
| ACAT1_P24752_413_QGEYGLASICNGGGGASAMLIQK (UniProt P24752) | -0.0547 | -0.278 |
| AAK1_Q2M2I8_159_LQTGFTENEVLQIFCDTCEAVAR (UniProt Q2M2I8) | 0.25 | 0.136 |
| AARS2_Q5JTZ9_596+609_AQVCGGFILHEAVAPECLR (UniProt Q5JTZ9) | 0.163 | 0.342 |
| ABI1_Q8IZP0_488_KNDDGWYEGVCNR (UniProt Q8IZP0) | -0.0466 | -0.111 |
| ABRAXAS2_Q15018_224_VQAVCADVEK (UniProt Q15018) | 0.076 | 0.0828 |
| ACLY_P53396_20_FICTTSAIQNR (UniProt P53396) | 0.0576 | 0.0555 |
| AARS_P49588_184+187_DNFWEMGDTGPCGPCSEIHYDR (UniProt P49588) | 0.105 | -0.0756 |
